From publication PMC6199344
These are yes or no findings as the source states them, for the method shown. Binding seen in cells or lysates may run through a third protein.

Sequences of proteins named here, by UniProt entry; tags and fusion partners are left off.
UniProt Q13148: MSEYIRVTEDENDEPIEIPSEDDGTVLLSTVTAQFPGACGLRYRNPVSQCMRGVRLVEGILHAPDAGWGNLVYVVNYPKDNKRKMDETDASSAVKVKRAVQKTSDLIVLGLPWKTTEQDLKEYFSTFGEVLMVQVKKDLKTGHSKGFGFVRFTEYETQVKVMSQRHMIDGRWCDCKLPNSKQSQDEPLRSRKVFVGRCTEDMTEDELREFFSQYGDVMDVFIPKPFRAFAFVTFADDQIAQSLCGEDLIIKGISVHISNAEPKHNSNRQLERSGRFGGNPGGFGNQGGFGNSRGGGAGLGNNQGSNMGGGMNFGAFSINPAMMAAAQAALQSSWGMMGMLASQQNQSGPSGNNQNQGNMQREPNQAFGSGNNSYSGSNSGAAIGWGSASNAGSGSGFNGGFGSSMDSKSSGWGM

Biological target: TAR DNA-binding protein 43 (human (endogenous in HEK293)) (UniProt Q13148)
Assay: co-IP; endogenous proteins, nuclear extract of HEK293 TetOn-GFP cells without doxycycline; anti-TDP-43 mAb 5028 or mouse IgG control on Dynabeads Protein G, 4 °C overnight, Pierce IP lysis buffer; immunoblot for ELL, ELL2, TDP-43

B1: ELL (protein, UniProt P55199 1-621)
chain: MAALKEDRSYGLSCGRVSDGSKVSVFHVKLTDSALRAFESYRARQDSVSLRPSIRFQGSQGHISIPQPDCPAEARTFSFYLSNIGRDNPQGSFDCIQQYVSSHGEVHLDCLGSIQDKITVCATDDSYQKARQSMAQAEEETRSRSAIVIKAGGRYLGKKVQFRKPAPGATDAVPSRKRATPINLASAIRKSGASAVSGGSGVSQRPFRDRVLHLLALRPYRKAELLLRLQKDGLTQADKDALDGLLQQVANMSAKDGTCTLQDCMYKDVQKDWPGYSEGDQQLLKRVLVRKLCQPQSTGSLLGDPAASSPPGERGRSASPPQKRLQPPDFIDPLANKKPRISHFTQRAQPAVNGKLGVPNGREALLPTPGPPASTDTLSSSTHLPPRLEPPRAHDPLADVSNDLGHSGRDCEHGEAAAPAPTVRLGLPLLTDCAQPSRPHGSPSRSKPKKKSKKHKDKERAAEDKPRAQLPDCAPATHATPGAPADTPGLNGTCSVSSVPTSTSETPDYLLKYAAISSSEQRQSYKNDFNAEYSEYRDLHARIERITRRFTQLDAQLRQLSQGSEEYETTRGQILQEYRKIKKTNTNYSQEKHRCEYLHSKLAHIKRLIAEYDQRQLQAWP
binding: no binding
